This is one part of the list.

The assay deals with T1, OsSMF1 (Oryza sativa, UniProt Q6ZLB0 1-436).
T1 sequence: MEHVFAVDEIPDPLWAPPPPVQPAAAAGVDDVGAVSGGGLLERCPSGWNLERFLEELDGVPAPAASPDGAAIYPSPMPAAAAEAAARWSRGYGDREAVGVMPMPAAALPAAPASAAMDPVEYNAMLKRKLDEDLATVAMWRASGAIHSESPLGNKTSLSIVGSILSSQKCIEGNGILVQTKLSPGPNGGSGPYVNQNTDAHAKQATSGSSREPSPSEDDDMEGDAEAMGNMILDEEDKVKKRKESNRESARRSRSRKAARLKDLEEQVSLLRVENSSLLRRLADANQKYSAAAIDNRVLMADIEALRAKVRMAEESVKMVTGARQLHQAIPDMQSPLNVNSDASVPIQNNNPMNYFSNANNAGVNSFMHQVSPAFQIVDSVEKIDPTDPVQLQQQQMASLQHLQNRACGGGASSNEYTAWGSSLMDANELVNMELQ
The assay can be described thus: protein-binding microarray (RPBM); PBS, 2% BSA, 51.3 ng/ul salmon testes DNA, 50 uM zinc acetate, 200 nM TF, 25 C, 1 h; high values mean tight binding. The settings on record: protein: recombinant; tags: N-terminal polyhistidine and DsRed monomer fusion (pET32a); chain copies: 2; label: CyDye5-dUTP incorporated in the synthesized complementary strand; 3' TTTTT single-stranded linker to array surface; dsDNA, one strand shown. In a few lines: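 Binding signal here means per-feature fluorescence intensity in arbitrary units. The values were read on an Axon 4000B scanner after a custom Agilent array, double-stranded by primer extension with Cy5-dUTP, was incubated with 200 nM protein at 25 °C for 1 h in PBS with 2% BSA, salmon testes DNA and 50 µM zinc acetate, then washed. The proteins were transcription factors with an N-terminal polyhistidine tag and DsRed, expressed in E. coli BL21-CodonPlus and purified on Ni–NTA.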
Regarding “GATCCTATAAAATTCCTGTGAAATGCCTCATTCAATAAAACGGAGTCACCTAGTGCAG”, the binding signal was 26700 fluorescence intensity (a.u.).
As for “AGGGGTTGGTCTTGCCTACTACAAATCCTCCTCCACGTCACGGAGTCACCTAGTGCAG”, the binding signal is 11900 fluorescence intensity (a.u.).
The same measure for “ATGATAACTCCGTTAGTTTTAAAAGGTAGAGATAATTTACCGGAGTCACCTAGTGCAG”: 3280 fluorescence intensity (a.u.).
On to “GGGCCGAACATAGGGTGGGTGCAGATGATGTCGAACTCCTCGGAGTCACCTAGTGCAG”, for which the binding signal was 3640 fluorescence intensity (a.u.).
The same measure for “ATCTTCGCTGCCGCCAACGGAGGCGCCTTAGGCAGCGAGCCGGAGTCACCTAGTGCAG”: 5750 fluorescence intensity (a.u.); for “CCTTTAATCCCTTTAGTTTGTTTGTATTACGTGGCTAGCACGGAGTCACCTAGTGCAG”: 8290 fluorescence intensity (a.u.); for “GATCGACTACGACGATGCCTTCGCTCCCGTGGCACGGATGCGGAGTCACCTAGTGCAG”: 4150 fluorescence intensity (a.u.).
The same measure for “CCCAGGGAGGCCAAACTACAAAGGCGATGCTTTCTACACACGGAGTCACCTAGTGCAG”: 41500 fluorescence intensity (a.u.); for “ACACCCAGCTACAACTAATTTAAGCAAGAGTGAGGAGACTCGGAGTCACCTAGTGCAG”: 5250 fluorescence intensity (a.u.); for “GGCCCGCGGAGCCAGGCTGAGGGGAAACGCTCGAATCGACCGGAGTCACCTAGTGCAG”: 27600 fluorescence intensity (a.u.).
As for “ATGGGCTGATGCCCTTACGTGGGCCCACCACCCACCCCTGCGGAGTCACCTAGTGCAG”, the figure is 3770 fluorescence intensity (a.u.); as for “TTGAACTTTGCATCCATGGAGACAGTAATACTCTCTGGCCCGGAGTCACCTAGTGCAG”, 3720 fluorescence intensity (a.u.).
For the sequence “GAGCGTAGACATTACACGCACGCACCTAAGGCGGAGATCTCGGAGTCACCTAGTGCAG”, the binding signal was 3580 fluorescence intensity (a.u.).
The same measure for “AGAAGGCTCGCCTACCGCAACCTCGAGAAGATGATCGACGCGGAGTCACCTAGTGCAG”: 3400 fluorescence intensity (a.u.); for “TACGATGAGTCATTTATTGATTATTGTATTAATGTTCCTTCGGAGTCACCTAGTGCAG”: 11500 fluorescence intensity (a.u.); for “TGATTATACGTCAGCCGAATATGCATATACTTTGAGTTTTCGGAGTCACCTAGTGCAG”: 6760 fluorescence intensity (a.u.).
The same measure for “GTCGTCGCGCTACTTCCCGGCGGCGTCGTGGGGCGGGCTGCGGAGTCACCTAGTGCAG”: 4250 fluorescence intensity (a.u.).
As to “GACACCGATGAAATCTCATGCTCCTCTGCCTGCCATGTGTCGGAGTCACCTAGTGCAG”, the binding signal is 3820 fluorescence intensity (a.u.).
The same measure for “ACAATGTTCCGGGTCTTATATTGCCAAATCAGTGACGTACCGGAGTCACCTAGTGCAG”: 59800 fluorescence intensity (a.u.); for “GCGGCCACCCGCCTCGCCATCGCCAACCTCTCCACGCGTCCGGAGTCACCTAGTGCAG”: 3340 fluorescence intensity (a.u.); for “CCTTGAGATCAGTCAGCACCACAGTGCCACTGCCACCCACCGGAGTCACCTAGTGCAG”: 4370 fluorescence intensity (a.u.).
The same measure for “TCTCCACCTAACGGCAGGCTCATGACTCATCATGGGCGCACGGAGTCACCTAGTGCAG”: 15800 fluorescence intensity (a.u.); for “GATCAAAAGCAAGATGATGCGGATGGCACGTCACGATTGTCGGAGTCACCTAGTGCAG”: 10900 fluorescence intensity (a.u.); for “ACCTATATGATTCATCCTCACTTAGTATTATTTCTCTCTTCGGAGTCACCTAGTGCAG”: 3400 fluorescence intensity (a.u.).
The same measure for “GGACTCCACCTCCTGGTGCACGCCTACGCGCGCGCGCGCCCGGAGTCACCTAGTGCAG”: 20100 fluorescence intensity (a.u.).
For the sequence “AAAGTCCACATATCTCACTATTTGAGGAACCCACATGGCACGGAGTCACCTAGTGCAG”, the binding signal is 3860 fluorescence intensity (a.u.).
As for “CTGATCAGTGCACGTCTGACGTCTCGTTTATTGAACAGCTCGGAGTCACCTAGTGCAG”, the figure is 4390 fluorescence intensity (a.u.); as for “TGGCGTACGGCGGTAGCCGGCGCGGTAGAACCGATCGATCCGGAGTCACCTAGTGCAG”, 13300 fluorescence intensity (a.u.).
In the case of “TAAAGGATCAGTTATCTTCAATGATGACATCAATGGTGGGCGGAGTCACCTAGTGCAG”, the binding signal is 4220 fluorescence intensity (a.u.).
Regarding “CACAGAGGAACCGAGCTACACATGCGTGGCAGACATGGGACGGAGTCACCTAGTGCAG”, the binding signal is 3350 fluorescence intensity (a.u.).
The same measure for “GCCGGTCGAACCGCCCGAACACCTACGGTCAGACCGCTGCCGGAGTCACCTAGTGCAG”: 3360 fluorescence intensity (a.u.); for “GACCCCTCCCCGCCGATTCCTCCCTCCTCCACGCGCGCGCCGGAGTCACCTAGTGCAG”: 3590 fluorescence intensity (a.u.).
In the case of “TTCTTTTGTTGTGTGGGTGTATGTTTTGGTTATGTGCATTCGGAGTCACCTAGTGCAG”, the binding signal is 4110 fluorescence intensity (a.u.).
On to “GAAGGGTATTAATCGGGCATATCTTGTTAGTATTCATTCCCGGAGTCACCTAGTGCAG”, for which the binding signal was 3470 fluorescence intensity (a.u.).
The same measure for “ACGGCCCATACAACCACCCTCCCCAAAACCCCAGCCCAAGCGGAGTCACCTAGTGCAG”: 22200 fluorescence intensity (a.u.); for “CCACATGCCGTCGTCGCCGTTCCAGTGCTTTCTGTCACCACGGAGTCACCTAGTGCAG”: 3850 fluorescence intensity (a.u.).
As to “TTTCAATAGAGTAATGACTCAGTAGGCCTCACTGATTAGTCGGAGTCACCTAGTGCAG”, the binding signal is 8340 fluorescence intensity (a.u.).
The same measure for “TCCAGTTTGACAGTTACAGTACAGATCGACGTGTAGAATACGGAGTCACCTAGTGCAG”: 4340 fluorescence intensity (a.u.); for “TAGTAGTACTATGTAACCGGTACAGTCACCAAAACAGGGTCGGAGTCACCTAGTGCAG”: 5260 fluorescence intensity (a.u.); for “TTGAAAGGGGAGATTTGCAATAATGACGCTGCAAACATTACGGAGTCACCTAGTGCAG”: 4000 fluorescence intensity (a.u.).
As for “TTGGCGTGTGTGCAGCATTTGCGGCGGCGGCTGAGAAAGACGGAGTCACCTAGTGCAG”, the figure is 31100 fluorescence intensity (a.u.).
The same measure for “AATTCCCGCCAACGCAGGCAACCGTAAAGCTGACGACGAGCGGAGTCACCTAGTGCAG”: 3950 fluorescence intensity (a.u.).
